{"sequences": {"note": "Protein sequences, listed by entry. Tags and fused reporters are not part of them.", "UniProt P11712, whole entry": "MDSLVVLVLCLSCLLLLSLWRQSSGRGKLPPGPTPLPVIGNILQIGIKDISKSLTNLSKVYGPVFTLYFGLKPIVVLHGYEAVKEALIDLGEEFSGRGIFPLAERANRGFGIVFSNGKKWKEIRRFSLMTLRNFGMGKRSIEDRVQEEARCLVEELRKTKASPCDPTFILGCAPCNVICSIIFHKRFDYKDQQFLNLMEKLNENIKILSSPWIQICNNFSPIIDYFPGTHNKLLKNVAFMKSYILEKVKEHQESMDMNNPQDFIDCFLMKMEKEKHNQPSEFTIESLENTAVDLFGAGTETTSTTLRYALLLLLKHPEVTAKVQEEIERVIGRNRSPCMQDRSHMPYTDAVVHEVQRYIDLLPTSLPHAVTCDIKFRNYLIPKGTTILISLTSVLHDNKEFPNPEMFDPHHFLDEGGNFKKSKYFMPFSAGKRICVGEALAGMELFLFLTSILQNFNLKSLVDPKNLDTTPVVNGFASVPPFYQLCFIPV"}, "source": "ChEMBL document CHEMBL3352189", "about": "(J Med Chem, 2014)", "biological_target": "Cytochrome P450 2C9 (Homo sapiens, UniProt P11712)", "assay": "Inhibition of human CYP2C9 at 10 uM", "assay_type": "ADME"}
{"smiles": "Nc1ccc(S(=O)(=O)Nc2ccnn2-c2ccccc2)cc1", "note": "[SULFAPHENAZOLE]", "values": [{"measurement": "inhibition (INH)", "value": 96, "unit": "%"}]}
